Experimental data reported in paper PMC2664925.
These are yes or no findings as the source states them, for the method shown. In cells and extracts the contact can be indirect. Some results given as binding are weak or reduced against the parent protein; the word gives no strength.

Sequences of proteins named here, by UniProt entry; tags and fusion partners are left off.
UniProt P02795: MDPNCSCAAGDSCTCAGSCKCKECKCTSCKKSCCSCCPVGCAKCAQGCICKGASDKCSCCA
UniProt P62330: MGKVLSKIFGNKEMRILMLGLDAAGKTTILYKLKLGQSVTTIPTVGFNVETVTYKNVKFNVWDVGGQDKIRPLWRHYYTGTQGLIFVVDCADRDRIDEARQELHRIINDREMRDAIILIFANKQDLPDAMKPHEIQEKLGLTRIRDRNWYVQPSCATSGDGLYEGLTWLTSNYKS

Target: GST-MT-2 (UniProt P02795)
Experiment: pull-down; GST-MT-2 beads; about 450 µg of protein lysate of normal (GM05659) or NPC mutant fibroblasts (GM03123, GM17923, GM18436) per assay; immunoblot probed for ARF6; only the target purified

binding: binds
Substance: ARF6 (endogenous, GTP-bound) (from UniProt P62330 1-175)
